Binding data for 5 substances are collected here from paper PMC12368267.

The chains behind the UniProt entries cited, without tags or fusion partners. Where a name states a change or a piece, a line headed by the entry shows the natural chain unless it says otherwise.
UniProt P16455: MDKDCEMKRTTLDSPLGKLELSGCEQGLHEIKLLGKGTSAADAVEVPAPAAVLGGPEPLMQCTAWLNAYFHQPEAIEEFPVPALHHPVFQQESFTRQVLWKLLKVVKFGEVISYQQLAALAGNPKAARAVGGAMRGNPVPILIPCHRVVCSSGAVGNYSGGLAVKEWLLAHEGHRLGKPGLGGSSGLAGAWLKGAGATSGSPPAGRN
UniProt Q93009: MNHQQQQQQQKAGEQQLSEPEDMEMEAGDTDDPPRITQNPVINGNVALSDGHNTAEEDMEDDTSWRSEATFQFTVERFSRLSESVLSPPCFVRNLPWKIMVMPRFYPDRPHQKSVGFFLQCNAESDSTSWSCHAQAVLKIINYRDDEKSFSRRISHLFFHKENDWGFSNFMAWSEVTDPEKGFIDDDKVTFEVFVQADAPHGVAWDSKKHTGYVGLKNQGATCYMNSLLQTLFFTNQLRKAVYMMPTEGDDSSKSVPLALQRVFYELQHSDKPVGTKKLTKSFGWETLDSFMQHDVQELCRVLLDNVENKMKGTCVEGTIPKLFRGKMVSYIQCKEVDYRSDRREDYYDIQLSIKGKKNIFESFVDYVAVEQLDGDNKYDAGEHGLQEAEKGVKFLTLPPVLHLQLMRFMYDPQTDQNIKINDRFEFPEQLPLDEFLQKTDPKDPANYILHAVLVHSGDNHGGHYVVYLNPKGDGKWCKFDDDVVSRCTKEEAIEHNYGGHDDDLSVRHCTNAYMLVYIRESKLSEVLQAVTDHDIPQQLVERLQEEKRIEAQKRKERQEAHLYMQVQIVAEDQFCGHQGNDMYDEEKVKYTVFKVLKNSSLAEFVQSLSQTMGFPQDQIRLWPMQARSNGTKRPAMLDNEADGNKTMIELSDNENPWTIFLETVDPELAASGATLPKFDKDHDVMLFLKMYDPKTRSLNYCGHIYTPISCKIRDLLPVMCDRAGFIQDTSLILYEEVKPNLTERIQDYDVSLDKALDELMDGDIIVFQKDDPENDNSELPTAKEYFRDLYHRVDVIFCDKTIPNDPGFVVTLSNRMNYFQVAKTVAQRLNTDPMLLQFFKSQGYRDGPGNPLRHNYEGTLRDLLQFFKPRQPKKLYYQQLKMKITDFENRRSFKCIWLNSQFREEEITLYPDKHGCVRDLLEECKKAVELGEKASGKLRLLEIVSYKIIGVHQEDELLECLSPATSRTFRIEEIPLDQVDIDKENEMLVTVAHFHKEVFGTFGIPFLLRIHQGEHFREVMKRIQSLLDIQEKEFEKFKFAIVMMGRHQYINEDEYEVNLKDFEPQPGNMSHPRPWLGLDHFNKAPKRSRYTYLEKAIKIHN
UniProt Q93008: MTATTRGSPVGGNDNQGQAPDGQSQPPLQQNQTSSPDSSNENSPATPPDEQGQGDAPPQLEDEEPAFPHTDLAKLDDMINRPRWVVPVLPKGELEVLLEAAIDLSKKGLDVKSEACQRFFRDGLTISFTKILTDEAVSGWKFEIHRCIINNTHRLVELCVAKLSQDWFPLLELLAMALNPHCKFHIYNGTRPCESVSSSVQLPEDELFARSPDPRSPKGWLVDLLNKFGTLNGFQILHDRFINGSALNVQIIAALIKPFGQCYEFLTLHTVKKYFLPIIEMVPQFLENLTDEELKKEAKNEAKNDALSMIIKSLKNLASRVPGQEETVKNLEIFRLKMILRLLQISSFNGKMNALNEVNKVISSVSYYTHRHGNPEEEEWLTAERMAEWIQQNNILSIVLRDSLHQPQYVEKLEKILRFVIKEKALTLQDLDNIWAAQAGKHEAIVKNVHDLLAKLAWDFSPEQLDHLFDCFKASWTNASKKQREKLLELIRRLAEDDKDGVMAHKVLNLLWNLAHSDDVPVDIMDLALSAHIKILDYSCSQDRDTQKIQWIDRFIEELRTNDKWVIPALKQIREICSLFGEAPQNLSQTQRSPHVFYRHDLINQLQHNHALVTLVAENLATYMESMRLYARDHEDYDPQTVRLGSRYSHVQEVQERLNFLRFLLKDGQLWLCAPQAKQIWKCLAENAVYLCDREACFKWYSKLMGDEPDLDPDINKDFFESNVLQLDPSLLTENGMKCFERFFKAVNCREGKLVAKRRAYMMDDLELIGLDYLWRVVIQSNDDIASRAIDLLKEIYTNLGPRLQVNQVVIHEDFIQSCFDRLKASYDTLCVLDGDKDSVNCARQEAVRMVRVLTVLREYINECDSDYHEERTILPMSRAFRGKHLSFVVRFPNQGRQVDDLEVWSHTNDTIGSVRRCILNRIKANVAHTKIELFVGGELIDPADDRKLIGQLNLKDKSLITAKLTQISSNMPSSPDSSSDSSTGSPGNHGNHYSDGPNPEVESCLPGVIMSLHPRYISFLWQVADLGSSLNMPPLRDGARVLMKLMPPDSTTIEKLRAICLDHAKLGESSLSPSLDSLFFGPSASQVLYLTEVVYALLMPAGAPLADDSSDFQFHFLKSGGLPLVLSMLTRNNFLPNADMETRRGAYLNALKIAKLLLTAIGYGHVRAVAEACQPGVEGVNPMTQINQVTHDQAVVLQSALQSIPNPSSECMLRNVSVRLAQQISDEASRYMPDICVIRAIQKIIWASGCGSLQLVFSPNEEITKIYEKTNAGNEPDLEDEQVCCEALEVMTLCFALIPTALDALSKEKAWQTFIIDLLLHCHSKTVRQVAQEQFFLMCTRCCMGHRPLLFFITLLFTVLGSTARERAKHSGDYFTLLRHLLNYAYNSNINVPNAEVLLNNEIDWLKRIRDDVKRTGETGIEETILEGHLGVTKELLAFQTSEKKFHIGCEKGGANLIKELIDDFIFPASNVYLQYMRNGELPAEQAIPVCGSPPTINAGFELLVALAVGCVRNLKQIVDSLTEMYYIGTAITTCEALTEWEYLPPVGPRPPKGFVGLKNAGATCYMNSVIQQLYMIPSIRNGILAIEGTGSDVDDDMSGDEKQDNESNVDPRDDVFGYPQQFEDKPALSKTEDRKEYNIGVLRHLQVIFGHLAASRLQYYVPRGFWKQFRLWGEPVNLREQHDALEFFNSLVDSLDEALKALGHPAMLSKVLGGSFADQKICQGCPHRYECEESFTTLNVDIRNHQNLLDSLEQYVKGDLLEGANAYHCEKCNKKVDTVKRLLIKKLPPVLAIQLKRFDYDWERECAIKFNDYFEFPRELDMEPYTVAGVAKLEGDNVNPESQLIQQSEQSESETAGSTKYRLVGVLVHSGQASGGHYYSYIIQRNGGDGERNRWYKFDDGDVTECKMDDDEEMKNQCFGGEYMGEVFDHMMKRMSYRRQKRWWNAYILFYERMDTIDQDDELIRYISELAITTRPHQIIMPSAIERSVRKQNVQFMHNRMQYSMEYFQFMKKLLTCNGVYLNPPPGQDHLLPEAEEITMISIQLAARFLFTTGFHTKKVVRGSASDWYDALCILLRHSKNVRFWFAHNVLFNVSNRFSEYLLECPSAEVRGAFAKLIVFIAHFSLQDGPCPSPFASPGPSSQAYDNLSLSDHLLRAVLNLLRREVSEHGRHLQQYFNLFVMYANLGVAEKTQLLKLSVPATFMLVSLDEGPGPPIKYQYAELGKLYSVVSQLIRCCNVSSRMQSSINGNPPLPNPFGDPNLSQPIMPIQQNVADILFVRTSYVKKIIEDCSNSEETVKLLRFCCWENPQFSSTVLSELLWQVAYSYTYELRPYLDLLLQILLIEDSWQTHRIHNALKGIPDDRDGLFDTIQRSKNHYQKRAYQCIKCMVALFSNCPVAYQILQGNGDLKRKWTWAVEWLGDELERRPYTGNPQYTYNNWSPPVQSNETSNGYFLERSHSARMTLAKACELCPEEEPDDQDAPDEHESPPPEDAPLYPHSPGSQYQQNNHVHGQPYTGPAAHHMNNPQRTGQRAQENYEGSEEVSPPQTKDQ

The target of assay [1] is HA-tagged MGMT, stably expressed in HEK293T cells (UniProt P16455). Put plainly: co-IP; HEK293T cells stably expressing HA-MGMT transfected with Flag-tagged DUBs, USP7 WT, C223S or truncated mutants; lysis buffer 150 mM NaCl, 50 mM Tris-HCl pH 7.9, 1% Triton X-100, 10% glycerol, 2 mM DTT; anti-Flag M2 or HA-agarose beads at 4 °C overnight; western blotting. In general terms: Immunoblotting shows a protein as a band on a membrane.

For assay [2] the target is unchanged. Briefly: co-IP; reciprocal co-IP: HA immunoprecipitation after expression of the indicated vectors; western blotting.
Assay [3] concerns the target GST-MGMT (UniProt P16455). Briefly: pull-down; in vitro reciprocal GST pulldown using GST-MGMT; both purified.
In assay [4] the target is Flag-tagged MGMT (O6-methylguanine-DNA-methyltransferase), expressed in T98G cells (UniProt P16455). Briefly: co-IP; T98G cells transduced with Flag-tagged GFP or Flag-MGMT, treated or not with 300 µM TMZ for 40 min; immunoprecipitation and western blotting.
The target of assay [5] is MGMT, endogenous in T98G cells (human (endogenous in T98G)) (UniProt P16455). Briefly: co-IP; endogenous proteins in T98G cells; immunoprecipitation with an anti-MGMT antibody.

These are yes or no findings as the source states them, for the method shown. For some of these results: Binding seen in cells or lysates may run through a third protein. Some binding calls cover weakened binding; strength is not graded here.

Turning to “Flag-tagged USP7 C223S (catalytically inactive mutant), transfected in HEK293T cells (from UniProt Q93009 1-1102) (enzyme)”, in assay [1], the binding entry is listed as “binds”.
For the substance “Flag-tagged USP7 wild type, transfected in HEK293T cells (from UniProt Q93009 1-1102) (enzyme)”, the binding entry in assay [2] and in assay [1] was “binds” in each case.
Consider “Flag-tagged USP9X, transfected in HEK293T cells (from UniProt Q93008 1-2554) (enzyme)”, for which the binding result in assay [1] is given as “no binding”.
For “USP7 used in the GST pulldown assay with GST-MGMT (from UniProt Q93009 1-1102) (enzyme)”, the binding entry in assay [3] is given as “binds”.
Consider “ubiquitin-specific protease 7 (USP7), endogenous in T98G cells (from UniProt Q93009 1-1102) (enzyme)”, for which the binding entry in assay [4] and in assay [5] was “binds” in each case.
